Among the data in the supplement of paper PMC6289059 are ATP level values, retold here.

“And” between values parts separate entries of the source, which are not always exact repeats. Equal values may be shown once. The list shows a part of the results. Many values rest on one well or one pass, so single values are uncertain.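 The assay uses human stem cell-derived hepatocyte-like cells whose DGUOK gene was disrupted by CRISPR, modeling liver mtDNA depletion syndrome. ATP signals were scored within each plate, and any drug with a score of at least 3 was called a primary hit.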

The test system of the experiment is DGUOK Δ14/Δ5 iPSC-derived hepatocyte-like cells (SV20). Kind of experiment: ATP level (CellTiter-Glo luminescence) Z score relative to plate distribution, under 2-DG glycolysis block; higher = more cellular ATP (rescue of mitochondrial ATP production). The note with it: 5 µM; treatment time: day 15 to day 20 of differentiation (5 days); 2-deoxy-D-glucose: 20 mM for 24 h before assay.
On to `O=c1c(O)c(-c2ccccc2)oc2ccccc12`, for which the ATP level is inactive: -0.872.

Take `O=C1CC[C@@H](C(=O)O)N1`: the ATP level is inactive: 0.0992.

On to `CO[C@H]1C[C@@H]2CC[C@@H](C)[C@@](O)(O2)C(=O)C(=O)N2CCCC[C@H]2C(=O)O[C@H]([C@H](C)C[C@@H]2CC[C@@H](O)[C@H](OC)C2)CC(=O)[C@H](C)/C=C(\C)[C@@H](O)[C@@H](OC)C(=O)[C@H](C)C[C@H](C)/C=C/C=C/C=C/1C`, for which the ATP level was inactive: 2.52.

Turning to `COC(=O)C[C@H]1C(C)(C)[C@@H](OC(C)=O)[C@@H]2CC3=C4CC(=O)O[C@@H](c5ccoc5)[C@]4(C)CC[C@@H]3[C@@]1(C)C2=O`, the ATP level was inactive: -0.62.

Regarding `CCOc1ccccc1C(N)=O`, the ATP level was inactive: -0.358.

On to `NS(=O)(=O)c1ccc(C(=O)O)cc1`, for which the ATP level is inactive: 2.29.

`CCN(CC)CCCC(C)Nc1c2ccc(Cl)cc2nc2ccc(OC)cc12` (stereo not given): the ATP level is inactive: -1.96.

Consider `Cc1nc(C)c(Cl)c(O)c1Cl`, for which the ATP level is inactive: 0.686.

Take `CCCCCCCCCCCCCCCC[N+](C)(C)CCN(Cc1ccc(OC)cc1)c1ncccn1`: the ATP level was inactive: -12.1.

With `O=C(O)P(=O)(O)O`, the ATP level was active: 3.47.

As to `CC(C)NCC(O)c1ccc(NS(C)(=O)=O)cc1` (stereo not given), the ATP level was inactive: 0.277.

As to `C#C[C@]1(O)CC[C@H]2[C@@H]3CCc4cc(OC)ccc4[C@H]3CC[C@@]21C`, the ATP level is inactive: -7.45.

Take `CC(=O)N1CCN(c2ccc(OCC3COC(Cn4ccnc4)(c4ccc(Cl)cc4Cl)O3)cc2)CC1` (stereo not given): the ATP level is inactive: 0.543.

Consider `O=c1c(-c2ccc(O)cc2)coc2cc(O)cc(O)c12`, for which the ATP level was inactive: 1.21.

As to `N[C@H](Cc1ccccc1)C(=O)O`, the ATP level was inactive: -6.71.

Consider `O=C1C=CC(=C(c2ccc(O)cc2)c2ccc(O)cc2)C=C1`, for which the ATP level was inactive: 0.861.

Consider `CCCc1nc(C)c2c(O)nc(-c3cc(S(=O)(=O)N4CCN(CC)CC4)ccc3OCC)nn12`, for which the ATP level was inactive: 0.774.

Turning to `COc1cc2c(cc1OC)-c1cc3ccc(OC)c(OC)c3c[n+]1CC2`, the ATP level is inactive: -11.3 and inactive: -11.6.

In the case of `COC(=O)[C@H]1[C@H]2C[C@@H]3c4[nH]c5cc(OC)ccc5c4CCN3C[C@H]2C[C@@H](OC(=O)c2cc(OC)c(OC)c(OC)c2)[C@@H]1OC`, the ATP level is inactive: -0.0557.

In the case of `CC(C)(CO)[C@@H](O)C(=O)NCCCO`, the ATP level was inactive: 1.49.

For the compound `O=C(O[C@@H]1Cc2c(O)cc(O)cc2O[C@@H]1c1cc(O)c(O)c(O)c1)c1cc(O)c(O)c(O)c1`, the ATP level is inactive: 2.26.

Take `CCOC(=O)[C@H](CCc1ccccc1)N[C@@H](C)C(=O)N1[C@H](C(=O)O)C[C@H]2CCCC[C@@H]21`: the ATP level is inactive: 0.204.

Turning to `C[C@]12CC[C@@H](O)C[C@H]1CCc1ccccc12` [3alpha-HYDROXY-4,4-BISNOR-8,11,13-PODOCARPATRIENE], the ATP level is inactive: 0.858.

Take `CC[C@H](CC[C@@H](C)[C@H]1CC[C@H]2[C@@H]3CC=C4C[C@@H](OC(C)=O)CC[C@]4(C)[C@H]3CC[C@]12C)C(C)C`: the ATP level is inactive: 0.665.

As to `COc1c(Cl)c(C)c(C(=O)Oc2cc(C)c(C(=O)O)c(O)c2)c(O)c1Cl`, the ATP level was inactive: -0.184.

`CC(C(=O)O)[C@H]1CCC2C3CC=C4C[C@@H](O)CC[C@]4(C)C3CC[C@@]21C` (stereo partly drawn) [3beta-HYDROXY-23,24-BISNORCHOL-5-ENIC ACID]: the ATP level is inactive: -2.11.

Regarding `CN1C(=O)CC(C)(c2ccccc2)C1=O` (stereo not given), the ATP level was inactive: 0.883.

With `CCN(CC)CCNC(=O)c1ccc(NC(C)=O)cc1`, the ATP level was inactive: 2.67.

`CNC[C@H](O)c1cccc(O)c1`: the ATP level was inactive: 0.984.

For `OC[C@H]1O[C@@H](OCCc2ccc(O)cc2)[C@H](O)[C@@H](O)[C@@H]1O`, the ATP level was inactive: -0.157.

For the compound `CNCCC=C1c2ccccc2CCc2ccccc21`, the ATP level was inactive: -14.2.

For `C[C@H]1[C@H](NC(=O)/C(=N\OC(C)(C)C(=O)O)c2csc(N)n2)C(=O)N1S(=O)(=O)O`, the ATP level was inactive: -0.251.

Turning to `CCc1c2c(nc3ccc(OC(=O)N4CCC(N5CCCCC5)CC4)cc13)-c1cc3c(c(=O)n1C2)COC(=O)[C@]3(O)CC`, the ATP level is inactive: -2.78.

Consider `Cc1ccc2c(c1)CC[C@H]1CC(=O)CC[C@]21C`, for which the ATP level is inactive: 0.709.

Regarding `C[C@@H](O)[C@H](N)C(=O)O`, the ATP level was inactive: -1.23.

`CC(C)(O/N=C(\C(=O)N[C@@H]1C(=O)N2C(C(=O)[O-])=C(C[n+]3ccccc3)CS[C@H]12)c1csc(N)n1)C(=O)O`: the ATP level was inactive: 2.83.

Consider `CN1CCN(C(c2ccccc2)c2ccc(Cl)cc2)CC1` (stereo not given), for which the ATP level is inactive: -2.68.

Turning to `Cc1ccc(C(C)C)cc2c(C)ccc1-2`, the ATP level was inactive: -1.05.

With `O=C(N/N=C/c1ccc([N+](=O)[O-])o1)c1ccc(O)cc1`, the ATP level was inactive: 0.395.

Take `NC(=O)c1ncn([C@@H]2O[C@H](CO)[C@@H](O)[C@H]2O)c1O`: the ATP level is inactive: 0.609.

With `CC(=O)Nc1ccc(S(=O)(=O)Nc2ccc([N+](=O)[O-])cc2)cc1`, the ATP level is inactive: 0.98.

In the case of `Cc1ccc(C(=O)Nc2ccc(S(=O)(=O)O)c3cc(S(=O)(=O)O)cc(S(=O)(=O)O)c23)cc1NC(=O)c1cccc(NC(=O)Nc2cccc(C(=O)Nc3cc(C(=O)Nc4ccc(S(=O)(=O)O)c5cc(S(=O)(=O)O)cc(S(=O)(=O)O)c45)ccc3C)c2)c1`, the ATP level was inactive: 2.63.

Turning to `CCc1cc(C(N)=S)ccn1`, the ATP level is inactive: -1.32.

Take `CC(=O)Nc1c(I)c(NC(C)=O)c(I)c(C(=O)O)c1I`: the ATP level was inactive: 0.977.

As to `CCn1cc(C(=O)O)c(=O)c2cc(F)c(N3CCN(C)CC3)cc21`, the ATP level was inactive: -1.43.

As to `Cc1ccc(S(=O)(=O)NCl)cc1`, the ATP level is inactive: 2.3.

For the compound `C[C@@H]1CN(c2c(F)c(N)c3c(=O)c(C(=O)O)cn(C4CC4)c3c2F)C[C@H](C)N1`, the ATP level was inactive: -2.32.

On to `C[C@@H]1O[C@@H]1P(=O)(O)O`, for which the ATP level was inactive: 2.09.

Regarding `CC1(C)[C@@H](O[C@H]2O[C@H](C(=O)O)[C@@H](O)[C@H](O)[C@H]2O[C@@H]2O[C@H](C(=O)O)[C@@H](O)[C@H](O)[C@H]2O)CC[C@]2(C)[C@H]3C(=O)C=C4[C@@H]5C[C@@](C)(C(=O)O)CC[C@]5(C)CC[C@@]4(C)[C@]3(C)CC[C@@H]12`, the ATP level is inactive: -6.21.

For `CCOC(=O)CCC(=O)O[C@H]1[C@H](O[C@@H]2[C@@H](C)[C@H](O[C@H]3C[C@@](C)(OC)[C@@H](O)[C@H](C)O3)[C@@H](C)C(=O)O[C@H](CC)[C@@](C)(O)[C@H](O)[C@@H](C)C(=O)[C@H](C)C[C@@]2(C)O)O[C@H](C)C[C@@H]1N(C)C`, the ATP level is inactive: -0.57.

For `C[C@]12C=CC(=O)C=C1CC[C@@H]1[C@@H]2C(=O)C[C@@]2(C)[C@H]1CC[C@]2(O)C(=O)CO`, the ATP level was inactive: -0.762.

For `CS(=O)(=O)Nc1ccc([N+](=O)[O-])cc1Oc1ccccc1`, the ATP level is inactive: 0.144.

As to `CCn1cc(C(=O)O)c(=O)c2cc(F)c(N3CCNC(C)C3)c(F)c21` (stereo not given), the ATP level was inactive: 1.38.

With `OCc1ccccc1`, the ATP level is inactive: -0.208.

With `CNC(=C[N+](=O)[O-])NCCSCc1csc(CN(C)C)n1`, the ATP level was active: 3.95.

As for `NS(=O)(=O)c1cc2c(cc1Cl)NCNS2(=O)=O`, the ATP level was inactive: 0.673.

As for `COc1cc(/C=C/C(=O)O)ccc1O`, the ATP level is inactive: -0.48.

On to `CC(=O)O[C@H]1CC[C@]2(C)[C@H]3CC=C4[C@@H]5CC(C)(C)CC[C@]5(C)CC[C@@]4(C)[C@]3(C)CC[C@H]2C1(C)C` [beta-AMYRIN ACETATE], for which the ATP level was inactive: -0.471.

On to `CN(C)CCC=C1c2ccccc2C=Cc2ccccc21`, for which the ATP level is inactive: -22.9.

For the compound `O=c1[nH]c(=O)n([C@H]2C[C@H](O)[C@@H](CO)O2)cc1F`, the ATP level was inactive: -28.4.

For the compound `Nc1ccc(C(=O)Oc2ccccc2)c(O)c1`, the ATP level is inactive: -0.682.

For the compound `CNNCc1ccc(C(=O)NC(C)C)cc1`, the ATP level was inactive: 0.69.

In the case of `C[n+]1cccc(C(=O)[O-])c1`, the ATP level was inactive: 0.528.

Regarding `O=C(O)c1cc(O)c2c(c1)[C@H]([C@H]1c3cc(C(=O)O)cc(O)c3C(=O)c3c(O[C@@H]4O[C@H](CO)[C@@H](O)[C@H](O)[C@H]4O)cccc31)c1cccc(O[C@@H]3O[C@H](CO)[C@@H](O)[C@H](O)[C@H]3O)c1C2=O`, the ATP level was inactive: 1.36.

For `CC(=O)Oc1cc(C(C)C)c(OCCN(C)C)cc1C`, the ATP level is inactive: 0.918.

For `N[C@@H](COCc1ccccc1)C(=O)O`, the ATP level is inactive: 0.999.

For the compound `CC(c1cc2ccccc2s1)N(O)C(N)=O` (stereo not given), the ATP level was inactive: 1.89.

`C[C@@H]1C(=O)O[C@H]2C[C@@]34[C@H]5C[C@@H](C(C)(C)C)[C@]36[C@@H](OC(=O)[C@@H]6O)O[C@@]4(C(=O)O5)[C@]21O`: the ATP level is inactive: 1.03.

In the case of `CC1=CC(=O)CC(C)(C)C1(O)/C=C/C(C)=C\C(=O)O` (mixture of isomers) [ABSCISIC ACID (cis,trans; +/-)], the ATP level is inactive: -0.334.

Regarding `NC(=O)c1ncn([C@@H]2O[C@H](CO)[C@@H](O)[C@H]2O)c1N`, the ATP level is inactive: -0.159.

Take `CCC(=O)O[C@H]1[C@H](O[C@@H]2[C@@H](C)[C@H](O[C@H]3C[C@@](C)(OC)[C@@H](O)[C@H](C)O3)[C@@H](C)C(=O)O[C@H](CC)[C@@](C)(O)[C@H](O)[C@@H](C)C(=O)[C@H](C)C[C@@]2(C)O)O[C@H](C)C[C@@H]1N(C)C`: the ATP level is inactive: -0.402.

As to `Nc1ncnc2c1ncn2[C@@H]1O[C@H](COP(=O)(O)O)[C@@H](O)[C@H]1O`, the ATP level was inactive: 1.54.

On to `S=C=Nc1ccc(N=C=S)cc1`, for which the ATP level is inactive: 0.643.

As to `CCCCC(=O)O[C@]1(C(=O)CO)[C@@H](C)C[C@H]2[C@@H]3CCC4=CC(=O)C=C[C@]4(C)[C@@]3(F)[C@@H](O)C[C@@]21C`, the ATP level was inactive: 1.43.

On to `CC(=O)OCC(=O)[C@@]1(O)CC[C@H]2[C@@H]3CCC4=CC(=O)CC[C@]4(C)[C@H]3C(=O)C[C@@]21C`, for which the ATP level was inactive: 0.186.
